Our source for the solubility values is ChEMBL document CHEMBL3351924, “Detailed analysis and follow-up studies of a high-throughput screening for indoleamine 2,3-dioxygenase 1 (IDO1) inhibitors” (Eur J Med Chem, 2014).

In brackets after ≈: the same amount, converted by molar mass.

The nature of the data set: Solubility of the compound in pH 6.5 phosphate buffer containing 5% DMSO.

`COC(=O)C1=C(C)NC(C)=C(C(=O)OC)C1c1ccccc1[N+](=O)[O-]` [NIFEDIPINE]: the solubility (in general, the concentration that dissolves in the medium under given conditions) was determined as 250 µM (≈ 86.6 µg/mL).
